Reference: article PMC7990189

B1: AtPIP2;4 (luciferase complementation fusion) (protein, UniProt Q9FF53 1-291)
chain: MAKDLDVNESGPPAARDYKDPPPAPFFDMEELRKWPLYRAVIAEFVATLLFLYVSILTVIGYKAQTDATAGGVDCGGVGILGIAWAFGGMIFVLVYCTAGISGGHINPAVTVGLFLARKVSLVRTVLYIVAQCLGAICGCGFVKAFQSSYYTRYGGGANELADGYNKGTGLGAEIIGTFVLVYTVFSATDPKRNARDSHVPVLAPLPIGFAVFMVHLATIPITGTGINPARSFGAAVIYNNEKAWDDQWIFWVGPMIGAAAAAFYHQFILRAAAIKALGSFGSFGSFRSFA
B2: AtPIP2;5 (luciferase complementation fusion) (protein, UniProt Q9SV31 1-286)
chain: MTKEVVGDKRSFSGKDYQDPPPEPLFDATELGKWSFYRALIAEFIATLLFLYVTIMTVIGYKSQTDPALNPDQCTGVGVLGIAWAFGGMIFILVYCTAGISGGHINPAVTFGLLLARKVTLVRAVMYMVAQCLGAICGVALVKAFQSAYFTRYGGGANGLSDGYSIGTGVAAEIIGTFVLVYTVFSATDPKRSARDSHVPVLAPLPIGFAVFIVHLATIPITGTGINPARSLGAAIIYNKDKAWDHHWIFWVGPFAGAAIAAFYHQFVLRAGAIKALGSFRSQPHV
B3: AtPIP2;8 (luciferase complementation fusion) (protein, UniProt Q9ZVX8 1-278)
chain: MSKEVSEEGRHGKDYVDPPPAPLLDMAELKLWSFYRAIIAEFIATLLFLYVTVATVIGHKNQTGPCGGVGLLGIAWAFGGMIFVLVYCTAGISGGHINPAVTFGLFLARKVSLPRAVAYMVAQCLGAICGVGLVKAFMMTPYKRLGGGANTVADGYSTGTALGAEIIGTFVLVYTVFSATDPKRSARDSHVPVLAPLPIGFAVFMVHLATIPITGTGINPARSFGAAVIYNNEKAWDDHWIFWVGPFVGALAAAAYHQYILRAAAIKALASFRSNPTN
B4: AtPIP2;7 (luciferase complementation fusion) (protein, UniProt P93004 1-280)
chain: MSKEVSEEGKTHHGKDYVDPPPAPLLDMGELKSWSFYRALIAEFIATLLFLYVTVATVIGHKKQTGPCDGVGLLGIAWAFGGMIFVLVYCTAGISGGHINPAVTFGLFLARKVSLVRALGYMIAQCLGAICGVGFVKAFMKTPYNTLGGGANTVADGYSKGTALGAEIIGTFVLVYTVFSATDPKRSARDSHIPVLAPLPIGFAVFMVHLATIPITGTGINPARSFGAAVIYNNEKAWDDQWIFWVGPFLGALAAAAYHQYILRASAIKALGSFRSNATN

Each binder was assayed against cLUC-CRN78 (Phytophthora sojae) (assay: split reporter; luciferase complementation in N. benthamiana leaves (nLUC and cLUC fusions, Agrobacterium infiltration); leaf discs after 2 days, 1 mM luciferin, luminescence in a microplate reader).

Binder | binding
B1 | binds
B2 | binds
B3 | binds
B4 | binds

No constants are given. Whether binding was seen depends on the method and setting. Binding seen in cells or lysates may run through a third protein. A result given as binding can be weak or reduced; the word gives no strength. Where a sequence is shown, tags or fusion partners need not be part of it.
